“And” between values parts separate entries of the source, which are not always exact repeats. Equal values may be shown once. Among all 390,000 compounds or so, about 4,000 (1%) were called active. Inconclusive means that the source gave no clear call. Such entries were picked first, then a sample of the others. Calls come from the whole dose curve; as a rule, active = well fitted inhibition curve with a large enough effect; inconclusive = small, poorly fitted or top-dose-only effect, or another doubt; inactive = no such curve, though single readings can be large or run the other way. A potency beside an inconclusive call is a rough fit, not a confirmed value. Some compounds were tested as several samples or in several runs, with calls that do not always agree.
Target: DNA polymerase iota (Homo sapiens) (UniProt Q9UNA4)
Assay: qHTS for Inhibitors of Polymerase Iota
Details: Pol iota fluorescent replication assay, 10 min; series mostly up to 115 µM
In short: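 Pol iota at 10 nM preincubated 15 min with compounds at room temperature; reaction started with fluorescent substrate, 50 nM final. Fluorescence read kinetically at 0 and 10 min; buffer-only wells as negative control.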
Potency is the fitted concentration of half-maximal effect.

Amino acid sequences for entries named in this document (tags omitted). A change or cut given only in a name is not applied to a line headed by its entry.
UniProt Q9UNA4: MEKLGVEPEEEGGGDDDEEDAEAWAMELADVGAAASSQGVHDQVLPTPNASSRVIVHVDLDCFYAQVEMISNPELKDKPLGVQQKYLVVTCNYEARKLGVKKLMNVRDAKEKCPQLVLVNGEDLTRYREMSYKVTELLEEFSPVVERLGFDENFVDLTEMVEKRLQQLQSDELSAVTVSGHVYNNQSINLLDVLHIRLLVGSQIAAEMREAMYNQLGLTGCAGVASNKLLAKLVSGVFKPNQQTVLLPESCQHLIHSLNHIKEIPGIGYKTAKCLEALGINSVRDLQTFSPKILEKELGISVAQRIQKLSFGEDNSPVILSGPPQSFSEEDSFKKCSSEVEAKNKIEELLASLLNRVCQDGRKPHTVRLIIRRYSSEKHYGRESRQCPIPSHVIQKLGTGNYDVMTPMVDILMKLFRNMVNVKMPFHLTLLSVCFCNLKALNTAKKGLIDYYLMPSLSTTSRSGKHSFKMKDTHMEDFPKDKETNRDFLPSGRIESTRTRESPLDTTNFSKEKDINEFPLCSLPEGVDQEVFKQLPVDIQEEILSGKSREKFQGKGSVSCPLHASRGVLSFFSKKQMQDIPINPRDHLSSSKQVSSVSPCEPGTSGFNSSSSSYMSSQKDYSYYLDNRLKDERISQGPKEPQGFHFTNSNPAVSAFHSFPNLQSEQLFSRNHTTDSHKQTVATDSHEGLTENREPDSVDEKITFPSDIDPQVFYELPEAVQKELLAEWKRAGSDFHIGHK

Potency, inconclusive:
O=C(CC(C(=O)O)N1CCOCC1)Nc1ccc(Cl)cc1 (stereo unspecified) 56.2 µM [inhibitor, partial curve, poor fit], COc1ccc(OC)c(C2=NOC(C(=O)Nc3ccccc3SC)C2)c1 (stereo unspecified) 39.8 µM [inhibitor, partial curve, poor fit], O=C(c1ccccc1)N1N=C(c2ccccc2)CC1c1ccccc1O (stereo unspecified) 39.8 µM [inhibitor, single point], CCOC(=O)/C=C1\CN(Cc2cc(OC)c(OC)c(OC)c2)S(=O)(=O)c2ccc(C(F)(F)F)cc21 31.6 µM [inhibitor, full curve, poor fit], CC1CC2(CCCCC2)Nc2ccc3ccccc3c21 (stereo unspecified) 25.1 µM [inhibitor, partial curve, poor fit], O=C(NCc1ccccc1)C1Cc2ccccc2CN1C(=O)c1ccco1 (stereo unspecified) 79.4 µM [inhibitor, partial curve], COC(=O)CSc1ncnc2c1cnn2Cc1ccccc1 31.6 µM [inhibitor, single point], CCOC(=O)c1c(NC(=O)CSc2nnc(CNc3ccc(Cl)cc3)o2)sc(C)c1C 35.5 µM [inhibitor, single point], O=C(Nc1cccc2ccccc12)c1cc2c(cc1Br)OCO2 89.1 µM [inhibitor, single point], OC(CCc1ccncc1)COc1ccccc1 (stereo unspecified) 100 µM [inhibitor, single point], COc1ccc(Sc2ccc(-c3nc4cnccn4c3NC3CCCCC3)cc2OC)cc1 15.8 µM [inhibitor, partial curve, poor fit], CC(=O)c1cccc(NC(=O)c2cc(-c3ccco3)nc3ccccc23)c1 50.1 µM [inhibitor, partial curve, poor fit], CCc1ccc(CNC(=O)C2CCN(c3nnc(C)c4c(C)n(-c5ccc(C)cc5)nc34)CC2)cc1 22.4 µM [inhibitor, partial curve, poor fit], CCN(Cc1ccccc1)C(=O)Cn1c(=O)n(-c2ccc(Cl)c(Cl)c2)c(=O)c2c(C)c(C(=O)N(C)C)sc21 89.1 µM [inhibitor, single point], COc1ccc(NC(=O)c2cc(-c3ccco3)nc3ccccc23)cc1 28.2 µM [inhibitor, partial curve, poor fit], COc1ccc(OC)c(NC(=O)c2c3c(nc4ccccc24)CCC3)c1 44.7 µM [inhibitor, partial curve], Cc1cc(C)n(-c2nc3ccccc3nc2Nc2cc(Cl)ccc2C)n1 89.1 µM [inhibitor, single point], CCOCCn1c(=O)c2c(nc3n2CCN3c2ccc(C)c(C)c2)n(C)c1=O 79.4 µM [inhibitor, single point], CCc1ccc(-n2nc(CO)c(C(=O)NCc3cccs3)n2)cc1 89.1 µM [inhibitor, single point], Cc1cccc(NC(=O)CNC(=O)c2cccc(S(=O)(=O)NCc3cccs3)c2)c1C 56.2 µM [inhibitor, single point], COc1cc(C(C)=O)ccc1COc1ccc(C(=O)O)cc1OC 50.1 µM [inhibitor, partial curve, poor fit], O=C(Nc1ccc2ccccc2c1)C(c1ccccc1)C1CCCC1 (stereo unspecified) 25.1 µM [inhibitor, single point], Cc1nc2sc(C(c3cccs3)N3CCN(Cc4ccccc4)CC3)c(O)n2n1 (stereo unspecified) 0.794 µM [inhibitor, full curve, poor fit], CN(C)c1ccc(/C=N/Nc2cccc(C(=O)O)c2)cc1 3.55 µM [inhibitor, partial curve, poor fit], Cc1ccc(C(=O)N2CCCN(c3nc4cc5c(cc4cc3C#N)OCO5)CC2)cc1 31.6 µM [inhibitor, single point], CN1CCCN(C2C3CC4CC(C3)CC2C4)CC1 (stereo unspecified) 0.631 µM [inhibitor, full curve, poor fit], COC(=O)[C@]1(C)N[C@H](c2ccc(-c3ccc(OC)cc3)cc2)[C@@H]2C(=O)N(C)C(=O)[C@@H]21 20 µM [inhibitor, partial curve, poor fit], C=CCN1C(=O)/C(=C/C(=O)OC)S/C1=N\NC(=O)c1ccccc1 39.8 µM [inhibitor, single point], Cc1ccc(C(=O)CSc2nnc(-c3ccco3)n2Cc2ccccc2)cc1 3.16 µM [inhibitor, single point], CN(Cc1ccco1)S(=O)(=O)c1nnc(NC(=O)c2ccccc2Cl)s1 39.8 µM [inhibitor, partial curve], CCOC(=O)c1nn(-c2ccc(OC)cc2)c(=O)c2c(N)scc12 25.1 µM [inhibitor, partial curve], COc1ccc(OC)c2c1C(=O)c1ccccc1C2=O 25.1 µM [inhibitor, single point], Cc1cc(C)c2nc(N3C(=O)C(O)=C(C(=O)c4ccco4)C3c3cccc(O)c3)sc2c1 (stereo unspecified) 22.4 µM [inhibitor, full curve, poor fit], CC(=O)Nc1cccc(NC(=O)CCn2cnc3cc(C)c(C)cc32)c1 3.16 µM [inhibitor, full curve, poor fit], COc1ccc(-c2nc(NCCCN(C)C)c3ccccc3n2)cc1 28.2 µM [inhibitor, partial curve, poor fit], Cc1no[n+]([O-])c1COc1ccccc1/C=C1\NC(=S)NC1=O 100 µM [inhibitor, partial curve, poor fit], Cc1ccccc1NC(=O)NNC(=O)COc1ccc2ccccc2c1 79.4 µM [inhibitor, single point], CCNC(=O)N1CCN(/[N+]([O-])=N/Oc2ccc([N+](=O)[O-])cc2[N+](=O)[O-])CC1 20 µM [inhibitor, single point], Cc1ccc(OCC(=O)N(C)CC(=O)NCc2ccco2)c(Br)c1 17.8 µM [inhibitor, full curve, poor fit], Cc1cc(Cl)c(S(=O)(=O)NC(C(=O)O)c2ccccc2)cc1OCC(N)=O (stereo unspecified) 35.5 µM [inhibitor, single point], Cc1cc(Br)cc2c1N(Cc1ccccc1OC(C)C)C(=O)C2=O 79.4 µM [inhibitor, single point], CCOC(=O)c1c(C)oc2c(CN3CCN(C)CC3)c(Br)c(OC)c(O)c12 14.1 µM [inhibitor, partial curve, poor fit], CCN1CCCC1CNC1=NCCCCC1 (stereo unspecified) 15.8 µM [inhibitor, partial curve, poor fit]

Potency, inactive and 79.4 µM (active):
COc1cccc(CN2c3ccc(Br)cc3C(=O)CS2(=O)=O)c1

Potency, inactive:
COc1ccc(NCc2nnc(SCC(=O)c3ccc(OC)cc3)n2C)cc1, Cc1cccc(OCC(=O)Nc2ccc(NC(=O)c3ccccc3)cc2)c1, Cc1cc(=O)oc2cc(OCC(=O)Nc3cccnc3)ccc12, Cc1cc(NC(=O)Nc2nnc(N3CCCCC3)s2)ccc1Br, CCOC(=O)c1nnn(-c2ccccc2)c1C, O=C1CCCC2=C1C(c1ccc(Cl)cc1)N=C(Nc1nc3ccccc3o1)N2 (stereo unspecified), Cc1ccc(NC(=O)CSc2ccc3c(c2)OCCO3)nc1, COc1cc(OC)c(C2CC(=O)N3CN(C)CSC3=C2C#N)cc1OC (stereo unspecified), O=C(NCc1cccs1)c1ccc(CSc2nc3ccncc3n2Cc2ccccc2F)cc1, COc1ccc(C(=O)CCC(=O)Nc2ccc(C)c(Cl)c2)cc1, Cc1nn(C2CCS(=O)(=O)C2)c(C)c1C=O (stereo unspecified), COCc1ccc(O)c2ncccc12, COc1ccc(C=NNC(=S)NC23CC4CC(CC(C4)C2)C3)cc1OC, COc1ccc(S(=O)(=O)Nc2ccccc2C)cc1, O=C1c2ccccc2C(=O)c2c(NCc3cccnc3)cccc21

Potency, active:
O=C(Nc1cc(C(=O)Nc2ccc(S(=O)(=O)O)cc2S(=O)(=O)O)cc(C(=O)Nc2ccc(S(=O)(=O)O)cc2S(=O)(=O)O)c1)Nc1cc(C(=O)Nc2ccc(S(=O)(=O)O)cc2S(=O)(=O)O)cc(C(=O)Nc2ccc(S(=O)(=O)O)cc2S(=O)(=O)O)c1 355 nM and 1.26 µM, CCOc1cc(C2C(C#N)=C(N)Oc3n[nH]c(-c4ccccc4)c32)ccc1O (stereo unspecified) 25.1 µM, CCCCCCc1c(C)c2ccc(OCC(=O)N3CCC[C@H]3C(=O)O)c(C)c2oc1=O 89.1 µM, COc1ccc(/C=N/NC(=O)c2ccc3nc[nH]c3c2)cc1OC 12.6 µM, COC1=C(N)C(=O)c2nc(-c3nc(C(=O)O)c(C)c(-c4ccc(OC)c(OC)c4O)c3N)ccc2C1=O 0.891 µM, COc1ccc(CC2=CC(=O)c3ccccc3C2=O)cc1 10 µM, Nc1nc(Sc2ccc([N+](=O)[O-])c3nonc23)c2[nH]cnc2n1 3.16 µM

Reference: PubChem BioAssay AID588590 (National Center for Advancing Translational Sciences (NCATS), 2011)
